# Measurements: PubChem BioAssay AID504582 (Broad Institute, 2011)
# Hit rate of the full screen: of about 340,000 compounds, about 2,300 (0.68%) were called active. Inconclusive results, whose numbers are uncertain, are shown with a selection of clear calls. Cut-off read from the data, not from the text of the source: active = growth rescue above about 28% (passing the limit was not always enough); inconclusive = no clear call, values can overlap the other calls.
# Test: rescue of yeast from PfHsp40 toxicity, primary screen, S. cerevisiae, ATP luminescence (AID 504582);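 note: yeast W303a lacking pdr1 and pdr3 grown in galactose medium; growth measured after three days at 30 °C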
# Conditions: S. cerevisiae expressing PfHsp40, growth rescue, at 12.5 µM, hits give high values
row,Compound,growth rescue
1,O=C(NC1CCSc2ccccc21)c1cccc(Br)c1 (stereo not given),active: 94.1%
2,O=c1c2cc(Br)ccc2nc(-c2ccccc2)n1O,active: 128%
3,COc1cccc(C(=O)NC2CCN(C(=O)N3CCCCC3)CC2)c1,inconclusive: 37.6%
4,COc1cnc(-c2ccccn2)nc1Oc1ccc(F)cc1F,inactive: 0.64%
5,CCSc1nc(N)c(C#N)c(-c2ccco2)c1C#N,inconclusive: 139%
6,COC(=O)c1c(-c2ccc(OC)cc2)sc2ccc(-c3ccc4c(c3)OCO4)cc12,inactive: -0.506%
7,Cc1ccc(NC(=S)NC2CC3CCC(C2)N3Cc2ccco2)c(C)c1 (stereo not given),inconclusive: 62.4%
8,Cc1ccc(N/N=C(\C#N)C(N)=S)c(C)c1,inconclusive: 27.7%
9,Cc1[nH]n(-c2ccccc2)c(=O)c1/C=N/NC(=O)c1ccc(O)cc1O,active: 51.6%
10,Oc1ccccc1/C=N/NC(=S)NC1CC2C=CC1C2 (stereo not given),inconclusive: 27.9%
11,Cc1cc(C)c(NS(=O)(=O)c2cccc3cccnc23)c(C)c1,inactive: 0.305%
12,Cc1cc(C(=O)N/N=C/c2ccc(O)c(O)c2O)c(C)n1-c1ccccc1,active: 87.2%
13,Cc1ccc(NC(=O)C2CCN(C(=O)c3ccccc3C)CC2)nc1,inconclusive: 27.7%
14,C=CCc1ccccc1Oc1cc(OC)nc(N)n1,inconclusive: 38.4%
15,N=C(N)c1ccc(/C=C/c2ccc(C(=N)N)cc2O)cc1,active: 137%
16,COc1cc(Nc2ccccn2)cc(C(=O)Nc2cccc(C(F)(F)F)c2)c1,inconclusive: 116%
17,Cc1ccc(NC(=O)c2cc(S(=O)(=O)NCCC3=CCCCC3)ccc2F)cc1,inconclusive: 25.9%
18,CCOc1c(Br)cc(C(=O)OCC(=O)N2CCc3ccccc3C2)cc1OC,inconclusive: 55.7%
19,C=CCNC(=O)C(=O)Nc1ccc2c(c1)N(S(=O)(=O)c1cccs1)CCC2,inconclusive: 25.2%
20,COc1cc(OC)cc(C(=O)N[C@H](C(=O)OCC(=O)Nc2ccc3c(c2)OCO3)C(C)C)c1,inconclusive: 37.3%
21,CC[C@]12c3[nH]c4ccc(OC)cc4c3CCN1C(=O)C(CC(=O)NCc1cccc(C(F)(F)F)c1)C[C@@H]2C(=O)N1CCN(C(=O)c2ccco2)CC1 (stereo not given in full),inconclusive: 33.6%
22,Cc1ccc(C(=O)C(SC(C)(C)C)n2cncn2)cc1 (stereo not given),active: 467%
23,O=[N+]([O-])c1cc(S(=O)(=O)C(F)(F)F)ccc1Sc1nc2ccccc2s1,inconclusive: 93.5%

row,Compound,growth rescue
1,COC(=O)Nc1ccc(S(=O)(=O)NNC(=O)c2c(O)c3ccccc3[nH]c2=O)cc1,active: 51.7%
2,Cc1cc(C(=O)COC(=O)COc2ccccc2C#N)c(C)n1CC1CCCO1 (stereo not given),inactive: -0.754%
3,COc1cc(C2Nc3cccc4cccc(c34)N2)cc(OC)c1OC(C)=O,inactive: -0.215%
4,CCCn1c(N)c(N(CCOC)C(=O)c2cc(-c3ccco3)nc3ccccc23)c(=O)[nH]c1=O,inconclusive: 25.6%
5,C[C@H]([C@@H](N)C(=O)N[C@@H](C(=O)O)[C@@H]1O[C@H](n2ccc(=O)[nH]c2=O)[C@@H](O)[C@H]1O)[C@@H](O)c1ccc(O)cn1,inconclusive: 53.4%
6,CC(C)Cn1c(N)c(C(=O)COC(=O)C2CCCCC2)c(=O)n(C)c1=O,inactive: 2.26%
7,Cc1ncc(CO)c(/C=N/NC(=O)c2cc(Br)ccc2O)c1O,inconclusive: 46.3%
8,CC(=O)N1CCc2cc(Br)cc(S(=O)(=O)NCCCN(C)Cc3ccccc3)c21,inconclusive: 29.6%
9,CC(C)(C)c1ccc(S(=O)(=O)Nc2noc3ccccc23)cc1,inconclusive: 27.5%
10,CCn1cc(C(=O)O)c(=O)c2cc(F)c(N3CCN(C(=S)NC(=O)c4c(OC)cccc4OC)CC3)cc21,inactive: -0.649%
11,O=c1c2ccccc2nc(-c2cccc(Cl)c2)n1O,active: 236%
12,Cc1ccc(C)c(/C=C/C(=O)c2ccccc(=O)c2O)c1,active: 224%
13,CC(C)(C)NC(=O)NC(=O)COc1ccc(Br)cc1Br,inconclusive: 28.5%
14,COc1ccc(OCC(=O)Nc2ccc(N3CCN(C(=O)c4ccccc4C)CC3)cc2)cc1,inconclusive: 38.4%
15,O=C(COc1ccccc1Cl)Nc1ccc(C(=O)N2CCCCC2)cc1,inactive: -1.03%
16,CCCn1c2ccccc2c2cc(C(=O)O)ccc21,active: 325%
17,O=C(Nc1cccc(Cl)c1)C1=Cc2cc(Cl)ccc2OC1,inconclusive: 122%
18,COc1ccc(CCNC(=S)Nc2ccc(C(C)C)cc2)cc1,inconclusive: 75%
19,Cc1ccc([C@@H]2CC=C(C(=O)O)[C@H](c3ccc(Cl)cc3)N2S(=O)(=O)c2ccccc2C)cc1,inconclusive: 225%
20,CCCc1ccc2oc(C(=O)NCCc3nc(C(=O)OCC)cs3)c(C)c2c1,active: 39.6%
21,O=C1C=C(c2cccc(Br)c2)C[C@@H](c2ccc3c(c2)OCO3)C1,inconclusive: 57.8%
22,COc1ccc2cc(C3=CC(=O)C[C@H](c4ccc5c(c4)OCO5)C3)ccc2c1,inconclusive: 27.3%
23,CCC(NC(=O)c1ccccc1NC(=O)c1ccccc1)C(=O)OC (stereo not given),inconclusive: 33.3%

# Look-ups from the list:
# Value of O=C(COc1ccccc1Cl)Nc1ccc(C(=O)N2CCCCC2)cc1 under growth rescue: inactive: -1.03%
# Value of COc1ccc(OCC(=O)Nc2ccc(N3CCN(C(=O)c4ccccc4C)CC3)cc2)cc1 under growth rescue: inconclusive: 38.4%

# (list continues)

row,Compound,growth rescue
1,CC(C)(C)c1ccc(/C=N/OCC(=O)NCc2ccc(F)cc2)cc1,active: 73.6%
2,NC(=O)NN=C1CC2CC1C1C=CCC21 (stereo not given),inactive: 0.436%
3,N=C1SCC(=O)N1c1ncc(Cc2ccc(F)cc2)s1,inconclusive: 201%
4,O=C(NC1=NCCS1)c1ccccc1OCc1ccccc1Cl,inconclusive: 155%
5,O=c1cc(-c2ccccc2)oc2cc(O)c(O)c(O)c12,active: 141%
6,CCC(=O)NC(c1ccc(Cl)cc1Cl)c1ccc2cccnc2c1O (stereo not given),active: 122%
7,CC1(C)C(=O)OC(C(=O)c2ccccc2)C2(CCCCC2)C1=O (stereo not given),inconclusive: 33.2%
8,c1ccc(Cn2cc(-c3cccnc3)cn2)cc1,active: 553%
9,CCc1ccc(Nc2ccc(C(=O)O)cc2[N+](=O)[O-])cc1,inconclusive: 118%
10,Cc1ccc(OC(F)F)c(NC(=O)Nc2cccc(C(F)(F)F)c2)c1,inconclusive: 127%
11,CC1CC(=O)c2c(cc3c(-c4c(O)cc(O)c5c(O)c6c(cc45)OC(C)CC6=O)c(O)cc(O)c3c2O)O1 (stereo not given),active: 102%
12,Nc1nn2cc(-c3ccc(Br)cc3)nc2c2ccccc12,active: 91.1%
13,Cc1noc(/C=C/N(C)C)c1S(=O)(=O)N1CCCC(C(=O)NCc2ccccc2Cl)C1 (stereo not given),inactive: 0.663%
14,COc1ccc(CN(CCCN2CCOCC2)C(=O)Nc2ccccc2)cc1OC,inactive: 0.229%
15,O=C(Nc1cccc(Cl)c1)c1ccc2c(c1)OCCO2,active: 80.8%
16,COC(=O)CNC(=O)CCc1nnc(C2(c3ccc(Cl)cc3)CCC2)o1,inconclusive: 27.7%
17,CCc1ccc(C(=O)COC(=O)c2cccnc2Cl)cc1,inconclusive: 35.6%
18,Cc1ccc(N=C2C(=O)Nc3ccc(Br)cc32)cc1,inconclusive: 29.1%
19,COc1ccc(OC)c(S(=O)(=O)Nc2ccc3c(c2)C(=O)OC3)c1,inconclusive: 35.2%
20,Cc1ccc(CCNc2ncnc(Cl)c2N)cc1,active: 733%
21,Clc1cccc(Nc2ncnc3ccc(Br)cc23)c1,inconclusive: 52.9%
22,O=C(CSc1ccc(-c2ccccn2)nn1)N1CCCc2ccccc21,active: 473%
23,COC(=O)/C(=C/Nc1ccc(O)cc1)[N+](=O)[O-],inactive: 1.39%

# Ordered by formula weight (smallest number first): three of the compounds above.
row,Compound,growth rescue
8,c1ccc(Cn2cc(-c3cccnc3)cn2)cc1,active: 553%
3,N=C1SCC(=O)N1c1ncc(Cc2ccc(F)cc2)s1,inconclusive: 201%
21,Clc1cccc(Nc2ncnc3ccc(Br)cc23)c1,inconclusive: 52.9%

# The results go on:

row,Compound,growth rescue
1,Cc1cc2oc(=O)cc(CN(C)Cc3ccccc3Cl)c2cc1C,inconclusive: 56.9%
2,CCOC(=O)c1c(NC(=O)c2cccnc2)sc(C)c1C,inactive: -0.206%
3,O=C(CSc1cccc[n+]1[O-])c1cc(Cl)ccc1Cl,active: 80.2%
4,CC1(C)O[C@@H]2C[C@H]3[C@@H]4CCC5=CC(=O)CC[C@]5(C)[C@@]4(F)[C@@H](O)C[C@]3(C)[C@]2(C(=O)CCl)O1,inconclusive: 36.1%
5,CCC(C)c1ccc(NC(=O)N2CCN(C(=O)C3CCCO3)CC2)cc1 (stereo not given),inconclusive: 27.6%
6,c1ccc(-c2nccc(-c3ccc(-n4cnc5ccccc54)cc3)n2)nc1,inactive: 3.45%
7,CCOC(=O)c1ccc(N2C(=O)CC(N3CCC(O)(c4ccc(Cl)cc4)CC3)C2=O)cc1 (stereo not given),active: 534%
8,Oc1ccccc1-c1cc(-c2ccccc2)n[nH]1,inconclusive: 35.5%
9,CCS(=O)(=O)N1CCCC(C(=O)NCCc2ccc(C)cc2)C1 (stereo not given),inactive: -0.372%
10,Cc1cc(NC(=O)Nc2cccc(Cl)c2)n(-c2ccccn2)n1,active: 101%
11,Cc1coc2c1C(=O)C(=O)c1c-2ccc2c1CCCC2(C)C,inconclusive: 28.8%
12,CCOc1ccc2nc(SCC(=O)N3c4ccccc4Sc4ccccc43)sc2c1,inactive: -0.422%
13,COc1ccc(C2=Nn3c(nnc3-c3ccco3)SC2)cc1OC,inactive: -0.044%
14,CN(C)S(=O)(=O)c1ccc(NC=O)cc1,inactive: -0.863%
15,COc1ccccc1NS(=O)(=O)c1cccc(NC(=O)Nc2ccccc2)c1,inactive: 0.459%
16,CC(C)(C)OC(=O)C[C@H]1C/C=C\C[C@@H](CC(=O)NCCO)C(=O)N2CCC[C@H]2COC1=O,inconclusive: 35.5%
17,O=S(=O)(Nc1ccc(-c2csc(-c3ccccc3)n2)cc1)c1ccc(F)cc1,inconclusive: 122%
18,CCOC(=O)N1CCN(C(=S)NC(=O)c2ccc(F)c(F)c2)CC1,inactive: 23.2%
19,Cc1cccc(C)c1NC(=O)COC(=O)c1ccc([N+](=O)[O-])o1,active: 32.3%
20,O=S(=O)(NC1CCCCC1)c1ccc(-c2csnn2)s1,inconclusive: 35.6%
21,O=C(Nc1nc2cc3c(cc2s1)OCO3)c1ccco1,inactive: -0.791%
